Here are results for 2 molecules from paper PMC3709506.

Amino acid sequences for entries named in this document (tags omitted).
UniProt P69447: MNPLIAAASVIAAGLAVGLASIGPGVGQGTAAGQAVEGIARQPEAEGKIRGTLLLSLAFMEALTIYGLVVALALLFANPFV

Assay [1] deals with chloroplast ATP synthase (cATPase) subunit III, membrane ring (III)14 (Spinacia oleracea) (UniProt P69447). Description: cross-linking; comparative: dephosphorylated cATPase (calf intestinal alkaline phosphatase, 37 °C) cross-linked with 2.5 mM deuterated BS3, untreated cATPase with non-deuterated BS3, pooled; areas of extracted ion chromatograms of heavy and light cross-links compared; both purified.

For assay [2] the target is unchanged. Put plainly: cross-linking; untreated cATPase, 1:1 mixture of 2.5 mM BS3-d4 and 2.5 mM BS3-d0, 1 h at room temperature; NuPAGE gel, in-gel digestion, LC-MS/MS, MassMatrix search, manual validation; both purified.

Results are given in words; binding and its absence hold for the method and conditions named. Some entries that bind do so weakly or less than the wild type.

B1: cATPase subunit ε, dephosphorylated enzyme (protein, UniProt P00833 1-134)
chain: MTLNLCVLTPNRSIWNSEVKEIILSTNSGQIGVLPNHAPTATAVDIGILRIRLNDQWLTLALMGGFARIGNNEITILVNDAERGSDIDPQEAQQTLEIAEANLRKAEGKRQKIEANLALRRARTRVEASNTISS
B1: the binding entry in assay [1] is given as “binds”.

B2: chloroplast ATP synthase (cATPase) subunit ε, untreated enzyme (protein, UniProt P00833 1-134)
chain: MTLNLCVLTPNRSIWNSEVKEIILSTNSGQIGVLPNHAPTATAVDIGILRIRLNDQWLTLALMGGFARIGNNEITILVNDAERGSDIDPQEAQQTLEIAEANLRKAEGKRQKIEANLALRRARTRVEASNTISS
modifications: phosphosite identified at S13
As for B2, the binding result in assay [2] is listed as “binds”.
